Experimental data reported in US20060160201A1, “Three-dimensional structures of HDAC9 and Cabin1 and compound structures and methods related thereto” (priority 2003, published 2006).
Part of at least one peptide drawing is inferred or uncertain, most often the ends. Where no end group is shown, it is not given here.

Tests used:
MEF2 [1] = biological target: T1, MEF2 (Homo sapiens, UniProt Q02080); experiment: Competition with the ligand p300 for MEF2; assay type: binding
T1 sequence (Q02080 1-365): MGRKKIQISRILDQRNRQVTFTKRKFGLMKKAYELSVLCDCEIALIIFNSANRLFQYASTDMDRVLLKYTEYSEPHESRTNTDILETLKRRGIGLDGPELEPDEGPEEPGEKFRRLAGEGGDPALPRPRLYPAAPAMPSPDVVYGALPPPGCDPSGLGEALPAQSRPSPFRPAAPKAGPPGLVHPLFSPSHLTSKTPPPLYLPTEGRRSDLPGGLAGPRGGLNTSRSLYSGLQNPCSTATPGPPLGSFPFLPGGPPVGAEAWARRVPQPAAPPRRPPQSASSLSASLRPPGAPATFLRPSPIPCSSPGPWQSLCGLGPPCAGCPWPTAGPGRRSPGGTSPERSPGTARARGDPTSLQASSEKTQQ

MEF2B (1-93) = biological target: T2, MEF2B (1-93) (Homo sapiens, UniProt Q02080); experiment: Isothermal titration calorimetry (ITC) of binding to MEF2B (1-93)
T2 construct: MEF2B (1-93) was expressed and purified similarly to the MEF2B/HDAC9 fusion protein; made in house
T2 sequence (Q02080 1-93): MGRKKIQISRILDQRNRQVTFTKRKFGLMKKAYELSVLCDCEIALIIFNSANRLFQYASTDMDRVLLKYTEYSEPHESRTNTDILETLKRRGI

MEF2 [2] = biological target: T1, MEF2; experiment: Binding to MEF2 and modulation of MEF2 activity in vitro

Row | Substance | competition with p300 (MEF2 [1]) | enthalpy of binding ΔH (MEF2B (1-93)) | entropy of binding ΔS (MEF2B (1-93)) | binding to MEF2 (MEF2 [2]) | modulation of the activity of MEF2 (MEF2 [2]; in vitro)
1 | RAVASTEVKQKLQEFLLSK [HDAC9 peptide] | compete efficiently | -1.238 kcal/mol | 23.85 cal/mol.K |  | 
2 | RAVASTEVKQKLQEFLLSKGSGSYGRKKRRQRRRGC-NH2 [SEQ ID NO:23] |  |  |  | binds to MEF2 | modulates the activity of MEF2
